# Measurements: patent publication US6489137B2, “Detection of loss of the wild-type huBUB1 gene” (Chiron Corporation, priority 1997, dated 2002)
# Amino acid sequences for entries named in this document (tags omitted). A change or cut given only in a name is not applied to a line headed by its entry.
# UniProt O43683: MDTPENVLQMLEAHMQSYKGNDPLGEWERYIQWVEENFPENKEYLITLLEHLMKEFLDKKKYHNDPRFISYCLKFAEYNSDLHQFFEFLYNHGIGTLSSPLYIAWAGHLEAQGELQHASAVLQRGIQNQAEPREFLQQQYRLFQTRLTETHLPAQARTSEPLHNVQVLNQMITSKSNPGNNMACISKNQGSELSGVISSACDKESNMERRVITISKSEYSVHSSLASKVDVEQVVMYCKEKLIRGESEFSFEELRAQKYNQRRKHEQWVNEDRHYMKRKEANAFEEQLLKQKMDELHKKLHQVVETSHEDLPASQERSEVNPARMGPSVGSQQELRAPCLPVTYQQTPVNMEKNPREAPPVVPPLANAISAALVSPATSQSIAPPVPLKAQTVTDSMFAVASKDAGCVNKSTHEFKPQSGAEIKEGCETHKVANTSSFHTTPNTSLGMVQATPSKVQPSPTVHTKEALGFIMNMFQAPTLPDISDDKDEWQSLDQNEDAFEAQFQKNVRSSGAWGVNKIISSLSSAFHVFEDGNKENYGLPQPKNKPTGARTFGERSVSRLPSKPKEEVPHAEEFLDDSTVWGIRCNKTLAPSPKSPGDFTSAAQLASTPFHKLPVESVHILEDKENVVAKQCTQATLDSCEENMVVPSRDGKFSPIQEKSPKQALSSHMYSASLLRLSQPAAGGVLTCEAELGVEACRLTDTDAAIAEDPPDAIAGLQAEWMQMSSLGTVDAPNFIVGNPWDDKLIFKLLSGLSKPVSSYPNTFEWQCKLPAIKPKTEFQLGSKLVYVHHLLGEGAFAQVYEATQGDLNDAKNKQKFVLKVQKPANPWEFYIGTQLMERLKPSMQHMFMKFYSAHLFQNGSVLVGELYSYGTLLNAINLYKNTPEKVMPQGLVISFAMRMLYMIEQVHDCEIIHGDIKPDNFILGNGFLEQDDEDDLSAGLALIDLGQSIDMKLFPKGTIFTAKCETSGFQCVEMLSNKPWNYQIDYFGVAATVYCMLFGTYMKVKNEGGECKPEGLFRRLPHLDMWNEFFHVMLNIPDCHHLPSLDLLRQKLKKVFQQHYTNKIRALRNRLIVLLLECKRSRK
# For at least one compound, name, drawing or mass did not settle the structure.
# Molecular target: T1, huBUB1 kinase (Homo sapiens, UniProt O43683)
# T1 construct: Plasmid p385-1, encoding full-length huBUB1 in the vector pCR3.1 (Invitrogen), was employed as a backbone for further constructs; made in house; host or cells: cell-free coupled in vitro transcription/translation (T7 TnT kit, Promega) from pCR3.1 plasmids, anti-FLAG immunopurified
# Assay: in vitro huBUB1 kinase (autophosphorylation) assay
# Type: biochemical
# Conditions: tested at 5, 10 and 20 μM
# Excerpt: A set of known compounds was screened using an in vitro huBUB1 kinase assay. Tested compounds included olomucine, myrecetin, hypericin, iodotubercidin, ellagic acid, emodin, and staurosporine. The relative specificity of these compounds towards known kinases has been reported in the literature. Some of these compounds can be classified as relatively specific kinase inhibitors (e.g., olomucine, myrecetin, ellagic acid), while other inhibitors are known to inhibit a broad range of kinase (e.g., hypericin, iodotubercidin, staurosporine).
# Unlabeled FLAG-BUB3/BUB1 in vitro translation products were immunopurified with anti-FLAG. […] kinase reactions were performed in the presence and absence of inhibitors in 20 μl reaction volumes. Labeled reaction products were separated on SDS-PAGE gels, and relative huBUB1 autophosphorylation was determined with the aid of a phosphorimager. An initial screen was conducted using 10 and 20 μM of each compound. Compounds with a positive result in this screen were then retested at 5, 10 and 20 μM (Table 1).
smiles,measurement,value
Cc1cc(O)c2c(=O)c3c(O)cc(O)c4c5c(O)cc(O)c6c(=O)c7c(O)cc(C)c8c1c2c(c34)c(c78)c65 [hypericin],inhibition of huBUB1 kinase (result in words),clearly inhibited
